The values below are quoted from earlier work in article PMC4029159 (Journal of medicinal chemistry, 2013).

Each structure is given as a SMILES string.

This series has as its system Vero. The conditions noted are these: read-out: Cellular IC50 Vero; ref [15]; cited from earlier work.

As for `O=C(CCCCCCC(=O)Nc1ccccc1)NO` [SAHA, suberoylanilide hydroxamic acid], the IC50 (commonly the midpoint of a concentration-inhibition curve) was 5.2 ± 0.96 µM.
